Source: the supplement of paper PMC12067093, “Discovery and optimisation of a covalent ligand for TRIM25 and its application to targeted protein ubiquitination” (Chemical Science, 2025)
The other results are listed elsewhere or left out.

By UniProt entry, the sequences of proteins in these tests, tags left out. Where a name states a change or a piece, a line headed by the entry shows the natural chain unless it says otherwise.
UniProt Q9NNW7, whole entry, looked up: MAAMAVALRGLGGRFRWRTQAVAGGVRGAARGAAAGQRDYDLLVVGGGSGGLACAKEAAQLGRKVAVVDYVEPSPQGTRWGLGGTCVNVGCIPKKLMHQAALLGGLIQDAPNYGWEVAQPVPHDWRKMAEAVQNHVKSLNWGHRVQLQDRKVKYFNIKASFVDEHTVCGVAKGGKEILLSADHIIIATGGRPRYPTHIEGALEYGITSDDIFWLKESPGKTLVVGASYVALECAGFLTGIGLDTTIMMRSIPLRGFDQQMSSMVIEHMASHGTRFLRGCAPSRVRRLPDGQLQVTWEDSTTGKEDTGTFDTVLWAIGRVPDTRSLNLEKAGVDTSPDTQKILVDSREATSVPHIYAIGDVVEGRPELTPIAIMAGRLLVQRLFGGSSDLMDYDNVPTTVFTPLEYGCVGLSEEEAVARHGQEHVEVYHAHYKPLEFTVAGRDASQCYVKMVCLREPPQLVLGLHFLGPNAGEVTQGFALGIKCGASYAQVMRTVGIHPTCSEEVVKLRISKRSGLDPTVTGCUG
UniProt Q8N806: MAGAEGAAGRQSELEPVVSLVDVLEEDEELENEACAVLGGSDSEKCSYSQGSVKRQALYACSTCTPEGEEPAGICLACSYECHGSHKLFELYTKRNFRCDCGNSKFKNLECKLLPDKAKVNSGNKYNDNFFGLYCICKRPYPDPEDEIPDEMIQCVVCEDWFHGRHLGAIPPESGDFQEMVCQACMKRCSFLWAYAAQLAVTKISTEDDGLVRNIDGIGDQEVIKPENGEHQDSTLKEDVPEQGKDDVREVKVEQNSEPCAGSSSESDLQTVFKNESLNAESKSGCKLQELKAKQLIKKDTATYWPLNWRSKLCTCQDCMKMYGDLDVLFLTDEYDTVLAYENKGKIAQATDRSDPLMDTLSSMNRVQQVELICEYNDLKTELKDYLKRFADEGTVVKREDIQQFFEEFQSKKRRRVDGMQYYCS
UniProt P29597: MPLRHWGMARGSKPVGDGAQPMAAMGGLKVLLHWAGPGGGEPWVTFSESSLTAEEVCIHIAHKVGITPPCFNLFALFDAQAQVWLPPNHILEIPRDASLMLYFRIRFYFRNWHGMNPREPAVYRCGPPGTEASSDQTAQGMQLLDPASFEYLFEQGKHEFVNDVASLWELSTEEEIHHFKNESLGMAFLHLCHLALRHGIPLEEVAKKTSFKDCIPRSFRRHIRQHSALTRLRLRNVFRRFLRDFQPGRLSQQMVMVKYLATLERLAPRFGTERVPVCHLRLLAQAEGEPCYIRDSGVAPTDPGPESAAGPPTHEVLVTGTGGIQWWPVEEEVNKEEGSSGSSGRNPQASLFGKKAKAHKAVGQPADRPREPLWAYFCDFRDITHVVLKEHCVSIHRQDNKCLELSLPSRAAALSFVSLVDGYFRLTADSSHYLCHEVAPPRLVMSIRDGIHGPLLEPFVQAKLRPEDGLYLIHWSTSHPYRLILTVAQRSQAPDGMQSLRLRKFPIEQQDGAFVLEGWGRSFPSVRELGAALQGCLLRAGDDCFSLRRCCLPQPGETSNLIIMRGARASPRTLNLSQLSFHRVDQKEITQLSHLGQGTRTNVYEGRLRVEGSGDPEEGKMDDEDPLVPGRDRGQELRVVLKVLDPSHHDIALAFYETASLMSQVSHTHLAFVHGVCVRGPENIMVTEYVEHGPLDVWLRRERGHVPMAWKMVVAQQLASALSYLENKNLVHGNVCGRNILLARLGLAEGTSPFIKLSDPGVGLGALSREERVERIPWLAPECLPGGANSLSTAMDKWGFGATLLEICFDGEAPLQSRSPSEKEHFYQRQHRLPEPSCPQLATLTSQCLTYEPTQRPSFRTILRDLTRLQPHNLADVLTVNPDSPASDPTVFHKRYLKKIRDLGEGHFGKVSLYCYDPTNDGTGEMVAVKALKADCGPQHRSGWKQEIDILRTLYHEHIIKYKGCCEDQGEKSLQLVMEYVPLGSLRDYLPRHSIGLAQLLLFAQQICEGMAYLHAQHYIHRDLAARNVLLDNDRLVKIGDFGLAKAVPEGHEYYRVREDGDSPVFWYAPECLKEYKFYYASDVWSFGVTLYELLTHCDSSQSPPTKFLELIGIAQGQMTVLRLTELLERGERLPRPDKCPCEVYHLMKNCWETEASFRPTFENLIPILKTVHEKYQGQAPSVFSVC
UniProt Q14139: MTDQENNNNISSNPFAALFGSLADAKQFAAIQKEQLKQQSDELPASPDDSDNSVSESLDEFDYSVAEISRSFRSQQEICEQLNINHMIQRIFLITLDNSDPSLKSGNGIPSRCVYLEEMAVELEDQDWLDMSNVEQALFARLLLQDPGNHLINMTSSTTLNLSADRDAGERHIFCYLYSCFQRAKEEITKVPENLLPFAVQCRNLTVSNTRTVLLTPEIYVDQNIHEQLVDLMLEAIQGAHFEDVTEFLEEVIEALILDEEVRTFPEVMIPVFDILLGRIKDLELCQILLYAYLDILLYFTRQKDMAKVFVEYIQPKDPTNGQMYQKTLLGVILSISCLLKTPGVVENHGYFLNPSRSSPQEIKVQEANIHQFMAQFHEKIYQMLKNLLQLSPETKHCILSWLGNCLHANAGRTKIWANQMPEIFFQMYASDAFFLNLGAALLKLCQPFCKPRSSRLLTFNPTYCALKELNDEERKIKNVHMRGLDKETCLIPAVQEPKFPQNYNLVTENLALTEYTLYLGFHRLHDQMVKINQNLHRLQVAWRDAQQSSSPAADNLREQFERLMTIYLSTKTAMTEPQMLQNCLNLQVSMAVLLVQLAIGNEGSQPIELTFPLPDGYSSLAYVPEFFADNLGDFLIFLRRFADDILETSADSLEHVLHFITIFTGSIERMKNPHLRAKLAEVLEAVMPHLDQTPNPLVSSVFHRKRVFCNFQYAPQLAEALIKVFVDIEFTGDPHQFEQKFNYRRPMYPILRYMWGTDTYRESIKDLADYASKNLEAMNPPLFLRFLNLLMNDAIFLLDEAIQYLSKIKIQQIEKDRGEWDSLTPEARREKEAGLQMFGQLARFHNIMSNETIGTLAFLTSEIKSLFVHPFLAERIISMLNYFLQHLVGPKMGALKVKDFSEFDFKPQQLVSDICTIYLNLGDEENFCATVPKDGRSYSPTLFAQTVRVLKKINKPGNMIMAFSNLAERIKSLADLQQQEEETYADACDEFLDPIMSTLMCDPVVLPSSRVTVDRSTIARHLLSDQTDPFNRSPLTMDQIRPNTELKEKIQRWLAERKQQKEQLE
UniProt Q8IWV7: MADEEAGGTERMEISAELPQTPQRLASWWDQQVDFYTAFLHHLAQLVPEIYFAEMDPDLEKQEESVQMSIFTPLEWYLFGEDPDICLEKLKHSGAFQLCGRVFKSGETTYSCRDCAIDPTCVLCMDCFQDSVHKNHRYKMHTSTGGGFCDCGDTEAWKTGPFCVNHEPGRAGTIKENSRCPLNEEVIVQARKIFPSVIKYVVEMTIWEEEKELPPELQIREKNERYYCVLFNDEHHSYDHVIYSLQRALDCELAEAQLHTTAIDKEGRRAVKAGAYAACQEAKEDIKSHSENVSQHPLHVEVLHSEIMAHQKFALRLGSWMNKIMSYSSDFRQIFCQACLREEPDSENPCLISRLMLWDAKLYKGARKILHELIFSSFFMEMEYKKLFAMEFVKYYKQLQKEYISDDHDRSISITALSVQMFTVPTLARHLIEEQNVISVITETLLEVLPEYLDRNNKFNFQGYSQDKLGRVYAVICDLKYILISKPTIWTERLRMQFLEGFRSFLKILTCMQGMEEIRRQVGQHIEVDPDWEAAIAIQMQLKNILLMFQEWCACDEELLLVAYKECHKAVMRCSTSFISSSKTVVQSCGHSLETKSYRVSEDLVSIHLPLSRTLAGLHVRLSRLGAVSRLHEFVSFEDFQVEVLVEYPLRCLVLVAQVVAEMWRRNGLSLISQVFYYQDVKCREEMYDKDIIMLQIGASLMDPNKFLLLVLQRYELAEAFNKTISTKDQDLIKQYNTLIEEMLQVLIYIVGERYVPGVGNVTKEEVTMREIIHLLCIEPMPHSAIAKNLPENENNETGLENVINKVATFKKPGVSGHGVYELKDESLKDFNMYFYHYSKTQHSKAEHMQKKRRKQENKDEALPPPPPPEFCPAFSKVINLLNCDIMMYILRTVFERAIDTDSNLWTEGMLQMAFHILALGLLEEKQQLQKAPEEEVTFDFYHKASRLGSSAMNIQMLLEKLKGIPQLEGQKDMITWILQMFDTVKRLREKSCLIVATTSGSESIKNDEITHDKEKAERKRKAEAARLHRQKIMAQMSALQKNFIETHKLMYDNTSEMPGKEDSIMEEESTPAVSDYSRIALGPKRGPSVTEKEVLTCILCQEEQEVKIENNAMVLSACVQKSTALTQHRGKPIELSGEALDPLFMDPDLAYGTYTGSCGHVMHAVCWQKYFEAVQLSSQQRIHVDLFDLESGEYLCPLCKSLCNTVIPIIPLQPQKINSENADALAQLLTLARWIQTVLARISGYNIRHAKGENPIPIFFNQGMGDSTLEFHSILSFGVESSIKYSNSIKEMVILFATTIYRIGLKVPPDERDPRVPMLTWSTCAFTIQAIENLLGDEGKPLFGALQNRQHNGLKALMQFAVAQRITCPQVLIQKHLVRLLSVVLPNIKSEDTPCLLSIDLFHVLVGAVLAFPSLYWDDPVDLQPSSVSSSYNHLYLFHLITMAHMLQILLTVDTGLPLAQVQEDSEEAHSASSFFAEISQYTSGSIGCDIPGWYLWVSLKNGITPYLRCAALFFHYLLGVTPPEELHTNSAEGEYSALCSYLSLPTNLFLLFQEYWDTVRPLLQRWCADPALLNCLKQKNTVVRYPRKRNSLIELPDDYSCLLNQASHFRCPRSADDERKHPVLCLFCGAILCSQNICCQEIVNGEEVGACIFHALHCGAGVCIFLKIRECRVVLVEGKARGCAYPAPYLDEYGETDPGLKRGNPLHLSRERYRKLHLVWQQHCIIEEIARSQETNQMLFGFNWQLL
UniProt Q15819: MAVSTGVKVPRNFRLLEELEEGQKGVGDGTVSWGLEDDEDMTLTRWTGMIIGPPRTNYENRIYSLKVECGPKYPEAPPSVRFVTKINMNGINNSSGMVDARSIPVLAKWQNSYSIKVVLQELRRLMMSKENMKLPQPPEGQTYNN
UniProt Q9NPD8: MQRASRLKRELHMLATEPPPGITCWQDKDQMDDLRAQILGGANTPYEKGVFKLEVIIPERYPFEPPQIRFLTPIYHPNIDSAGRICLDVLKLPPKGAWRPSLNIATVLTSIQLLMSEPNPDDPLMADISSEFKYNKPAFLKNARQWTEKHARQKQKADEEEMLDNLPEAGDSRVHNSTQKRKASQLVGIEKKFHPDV
UniProt Q9C0C9: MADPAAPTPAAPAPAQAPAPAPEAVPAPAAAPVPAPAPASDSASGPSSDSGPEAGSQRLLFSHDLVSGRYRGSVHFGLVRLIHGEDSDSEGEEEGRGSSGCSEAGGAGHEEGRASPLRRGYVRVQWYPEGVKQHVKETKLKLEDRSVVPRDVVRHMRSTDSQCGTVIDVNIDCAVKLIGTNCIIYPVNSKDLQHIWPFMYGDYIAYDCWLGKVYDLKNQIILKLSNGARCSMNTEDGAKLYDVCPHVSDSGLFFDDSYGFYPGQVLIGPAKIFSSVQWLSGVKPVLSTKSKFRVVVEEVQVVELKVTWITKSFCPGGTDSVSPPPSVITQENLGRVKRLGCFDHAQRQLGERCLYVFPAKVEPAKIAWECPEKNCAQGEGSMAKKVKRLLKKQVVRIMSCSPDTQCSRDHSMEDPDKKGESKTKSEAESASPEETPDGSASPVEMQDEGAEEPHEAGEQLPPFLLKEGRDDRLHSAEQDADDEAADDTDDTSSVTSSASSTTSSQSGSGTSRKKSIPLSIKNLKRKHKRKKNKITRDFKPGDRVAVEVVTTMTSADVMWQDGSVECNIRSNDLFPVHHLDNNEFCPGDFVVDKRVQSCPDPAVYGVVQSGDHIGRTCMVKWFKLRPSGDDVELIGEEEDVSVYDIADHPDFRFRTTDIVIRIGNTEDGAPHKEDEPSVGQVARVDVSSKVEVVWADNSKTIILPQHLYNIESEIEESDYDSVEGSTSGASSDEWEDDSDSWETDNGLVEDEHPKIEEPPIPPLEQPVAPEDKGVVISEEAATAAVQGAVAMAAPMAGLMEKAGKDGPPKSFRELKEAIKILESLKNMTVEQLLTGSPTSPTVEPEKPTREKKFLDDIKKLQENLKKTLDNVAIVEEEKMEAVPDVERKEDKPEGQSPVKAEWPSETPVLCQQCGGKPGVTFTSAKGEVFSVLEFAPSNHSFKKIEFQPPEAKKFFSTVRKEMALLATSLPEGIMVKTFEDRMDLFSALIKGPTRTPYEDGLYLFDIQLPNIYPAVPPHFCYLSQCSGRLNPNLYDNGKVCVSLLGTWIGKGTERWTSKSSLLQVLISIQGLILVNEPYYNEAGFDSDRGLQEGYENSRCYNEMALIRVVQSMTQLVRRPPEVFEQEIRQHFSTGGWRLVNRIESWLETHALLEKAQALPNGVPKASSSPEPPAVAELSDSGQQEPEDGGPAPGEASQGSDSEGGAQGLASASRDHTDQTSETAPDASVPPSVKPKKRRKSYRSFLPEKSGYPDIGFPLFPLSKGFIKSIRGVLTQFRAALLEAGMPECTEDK

Compound: Cc1cc(ccc1-c1ccccc1)C(=O)N1CCCN(CC1)C(=O)CCl [compound 10]
Test: probe-labelled cysteine peptide fold change vs DMSO (competition) (log2 fold change); higher = less target engagement (more negative = stronger competition)
Settings: THP-1, incubation time: 4 h
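Also: competitive profiling in live THP-1 cells: cysteine peptides tagged with an iodoacetamide desthiobiotin (IA-DTB) probe, intensity after compound treatment relative to DMSO-treated cells.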

Row | Target | probe-labelled cysteine peptide fold change (10 µM) | probe-labelled cysteine peptide fold change (50 µM)
1 | UBA1_P22314_748_CPHPLTFDVNNPLHLDYVMAAANLFAQTYGLTGSQDR (UniProt P22314) | 0.129 | 0.0777
2 | UBR5_O95071_1942_SHNDEHSDVLPVLDVCSLK (UniProt O95071) | -0.0432 | -0.39
3 | UBR4_Q5T4S7_1033_TYINQLSMNSPEMSECDILHTLR (UniProt Q5T4S7) | -0.0865 | 0.0548
4 | UBAP1_Q9NZ09_243_ATLDFKPLHKPNGFITLPQLGNCEK (UniProt Q9NZ09) | -0.239 | -1.36
5 | UBE2L6_O14933_86+98_IYHPNVDENGQICLPIISSENWKPCTK (UniProt O14933) | -0.606 | -1.39
6 | UBN1_Q9NPG3_467_YQDECQAHTQAK (UniProt Q9NPG3) | 0.0477 | -0.0227
7 | UBA7_P41226_445_QHYLLVGAGAIGCELLK (UniProt P41226) | -0.156 | -0.00376
8 | TXNL4B_Q9NX01_38_FGRDEDPVCLQLDDILSK (UniProt Q9NX01) | -0.132 | -0.00756
9 | UBE3A_Q05086_480_FSFMTCPFILNAVTK (UniProt Q05086) | -0.0742 | 0.0689
10 | UBR4_Q5T4S7_122_LENPDEACAVSQK (UniProt Q5T4S7) | -0.41 | 0.432
11 | TXNL1_O43396_135+137+149_AGCECLNESDEHGFDNCLR (UniProt O43396) | -0.739 | -0.998
12 | UBE2R2_Q712K3_93_MWHPNIYENGDVCISILHPPVDDPQSGELPSER (UniProt Q712K3) | -0.0923 | -0.00539
13 | UBR5_O95071_2267_CATTPMAVHR (UniProt O95071) | 0.0932 | -0.592
14 | UBE2G2_P60604_75_FTCEMFHPNIYPDGR (UniProt P60604) | -0.0589 | -0.214
15 | TXNRD2_Q9NNW7_500_TVGIHPTCSEEVVK (UniProt Q9NNW7) | 0.0778 | 0.134
16 | UBA1_P22314_1039+1040_ALVLELCCNDESGEDVEVPYVR (UniProt P22314) | 0.172 | 0.0769
17 | UBE2I_P63279_138_QILLGIQELLNEPNIQDPAQAEAYTIYCQNR (UniProt P63279) | -0.0616 | 0.401
18 | UBR4_Q5T4S7_3677_CSASVPANPGVCGNCGENVYQCHK (UniProt Q5T4S7) | 0.131 | 0.276
19 | UBAP2_Q5T6F2_71_NQDECIVALHDCNGDVNK (UniProt Q5T6F2) | 0.0613 | -0.0464
20 | UBR7_Q8N806_155_RPYPDPEDEIPDEMIQCVVCEDWFHGR (UniProt Q8N806) | 0.0312 | 0.0116
21 | UBA3_Q8TBC4_164_QFHIIVCGLDSIIAR (UniProt Q8TBC4) | -0.0578 | -0.0829
22 | UBR4_Q5T4S7_4916_CNGLLPVWGPHVPESAFATCLAR (UniProt Q5T4S7) | 0.0988 | -0.0016
23 | UBR5_O95071_1093_LLCDSVVLQPYLR (UniProt O95071) | -0.00562 | 0.137

Row | Target | probe-labelled cysteine peptide fold change (10 µM) | probe-labelled cysteine peptide fold change (50 µM)
24 | TXN_P10599_32+35_LVVVDFSATWCGPCK (UniProt P10599) | -0.879 | -0.645
25 | UBR4_Q5T4S7_2222_HTACNEQQR (UniProt Q5T4S7) | -0.245 | -1.12
26 | UBA1_P22314_706_SLVLQRPQTWADCVTWACHHWHTQYSNNIR (UniProt P22314) | 0.186 | 0.291
27 | UBA6_A0AVT1_231_EIFISNITQANPGIVTCLENHPHKLETGQFLTFR | 0.0113 | 0.231
28 | UBR4_Q5T4S7_4430_VWCTTNEGEPMR (UniProt Q5T4S7) | -0.0106 | 0.0362
29 | TXNRD2_Q9NNW7_483_CGASYAQVMR (UniProt Q9NNW7) | 0.134 | 0.135
30 | UBAP1_Q9NZ09_452_GFDPLLVEEALEMHQCSEEK (UniProt Q9NZ09) | -0.0154 | -0.24
31 | TYK2_P29597_936_ADCGPQHR (UniProt P29597) | -0.0616 | -0.288
32 | UBE4A_Q14139_79_SQQEICEQLNINHMIQR (UniProt Q14139) | -0.119 | -0.0744
33 | UBR4_Q5T4S7_1962_LASAPVPFTVLSLTGNPCK (UniProt Q5T4S7) | -0.0379 | 0.0709
34 | UBA3_Q8TBC4_139_VPNCNVVPHFNK (UniProt Q8TBC4) | -0.0131 | 0.115
35 | TXNL1_O43396_149_AGCECLNESDEHGFDNCLRK (UniProt O43396) | -0.189 | -0.0731
36 | UBAP2L_Q14157_75_NQDECVIALHDCNGDVNR (UniProt Q14157) | 0.0576 | -0.12
37 | UBR1_Q8IWV7_1603_NSLIELPDDYSCLLNQASHFR (UniProt Q8IWV7) | -0.114 | -0.631
38 | UBA3_Q8TBC4_82_VLVIGAGGLGCELLK (UniProt Q8TBC4) | 0.0482 | -0.259
39 | UBE2V2_Q15819_69_VECGPKYPEAPPSVR (UniProt Q15819) | -0.0381 | -0.597
40 | UBE2T_Q9NPD8_86_ICLDVLK (UniProt Q9NPD8) | -0.0694 | 0.175
41 | UBE2O_Q9C0C9_375_NCAQGEGSMAK (UniProt Q9C0C9) | -0.0634 | -0.156
42 | UBA6_A0AVT1_455_ACIGDTLCQK | -0.0288 | 0.0705
43 | UACA_Q9BZF9_980_ELDTIQECIK (UniProt Q9BZF9) | -0.247 | -0.59
44 | UBR5_O95071_51_QCVVGPNHAAFLLEDGR (UniProt O95071) | 0.141 | 0.166
45 | UBR7_Q8N806_158_RPYPDPEDEIPDEMIQCVVCEDWFHGR (UniProt Q8N806) | -0.0128 | -0.397
46 | TYSND1_Q2T9J0_17_AAEQAGCMVSASR (UniProt Q2T9J0) | 0.0109 | 0.0758

A second format for part of the listing above.

| Row | Target | probe-labelled cysteine peptide fold change (10 µM) | probe-labelled cysteine peptide fold change (50 µM) |
| --- | --- | --- | --- |
| 25 | UBR4_Q5T4S7_2222_HTACNEQQR (UniProt Q5T4S7) | -0.245 | -1.12 |
| 26 | UBA1_P22314_706_SLVLQRPQTWADCVTWACHHWHTQYSNNIR (UniProt P22314) | 0.186 | 0.291 |
| 27 | UBA6_A0AVT1_231_EIFISNITQANPGIVTCLENHPHKLETGQFLTFR | 0.0113 | 0.231 |
| 28 | UBR4_Q5T4S7_4430_VWCTTNEGEPMR (UniProt Q5T4S7) | -0.0106 | 0.0362 |
| 29 | TXNRD2_Q9NNW7_483_CGASYAQVMR (UniProt Q9NNW7) | 0.134 | 0.135 |
| 30 | UBAP1_Q9NZ09_452_GFDPLLVEEALEMHQCSEEK (UniProt Q9NZ09) | -0.0154 | -0.24 |
| 31 | TYK2_P29597_936_ADCGPQHR (UniProt P29597) | -0.0616 | -0.288 |
| 32 | UBE4A_Q14139_79_SQQEICEQLNINHMIQR (UniProt Q14139) | -0.119 | -0.0744 |
| 33 | UBR4_Q5T4S7_1962_LASAPVPFTVLSLTGNPCK (UniProt Q5T4S7) | -0.0379 | 0.0709 |
| 34 | UBA3_Q8TBC4_139_VPNCNVVPHFNK (UniProt Q8TBC4) | -0.0131 | 0.115 |
| 35 | TXNL1_O43396_149_AGCECLNESDEHGFDNCLRK (UniProt O43396) | -0.189 | -0.0731 |
| 36 | UBAP2L_Q14157_75_NQDECVIALHDCNGDVNR (UniProt Q14157) | 0.0576 | -0.12 |
| 37 | UBR1_Q8IWV7_1603_NSLIELPDDYSCLLNQASHFR (UniProt Q8IWV7) | -0.114 | -0.631 |
| 38 | UBA3_Q8TBC4_82_VLVIGAGGLGCELLK (UniProt Q8TBC4) | 0.0482 | -0.259 |
| 39 | UBE2V2_Q15819_69_VECGPKYPEAPPSVR (UniProt Q15819) | -0.0381 | -0.597 |
| 40 | UBE2T_Q9NPD8_86_ICLDVLK (UniProt Q9NPD8) | -0.0694 | 0.175 |
| 41 | UBE2O_Q9C0C9_375_NCAQGEGSMAK (UniProt Q9C0C9) | -0.0634 | -0.156 |
| 42 | UBA6_A0AVT1_455_ACIGDTLCQK | -0.0288 | 0.0705 |
| 43 | UACA_Q9BZF9_980_ELDTIQECIK (UniProt Q9BZF9) | -0.247 | -0.59 |
| 44 | UBR5_O95071_51_QCVVGPNHAAFLLEDGR (UniProt O95071) | 0.141 | 0.166 |
| 45 | UBR7_Q8N806_158_RPYPDPEDEIPDEMIQCVVCEDWFHGR (UniProt Q8N806) | -0.0128 | -0.397 |

(next part)

Row | Target | probe-labelled cysteine peptide fold change (10 µM) | probe-labelled cysteine peptide fold change (50 µM)
47 | UBN1_Q9NPG3_765_ELSCQAPLNK (UniProt Q9NPG3) | -0.169 | -0.168
48 | TYSND1_Q2T9J0_48_SPGLVLCHGGIFVPFLR (UniProt Q2T9J0) | -0.107 | 0.096
49 | TYMP_P19971_361_ALCSGSPAER (UniProt P19971) | -0.0102 | 0.0667
50 | TXNRD1_Q16881_214_WGLGGTCVNVGCIPKK (UniProt Q16881) | -0.00826 | -0.749
51 | UBE2A_P49459_88_MFHPNVYADGSICLDILQNR (UniProt P49459) | -0.288 | -0.114
52 | UBA6_A0AVT1_96_CQAWDLGTNFFLSEDDVVNK | -0.26 | 0.29
53 | UBE2T_Q9NPD8_24_ELHMLATEPPPGITCWQDKDQMDDLR (UniProt Q9NPD8) | -0.422 | -0.991
54 | TXNL1_O43396_135_AGCECLNESDEHGFDNCLR (UniProt O43396) | -0.407 | -0.487
55 | UBA1_P22314_481_YFLVGAGAIGCELLK (UniProt P22314) | 0.0196 | 0.032
56 | UBA3_Q8TBC4_139_AEVAAEFLNDRVPNCNVVPHFNK (UniProt Q8TBC4) | 0.0618 | -0.0531
57 | UBAC1_Q9BSL1_19_LHICASDGAEWLEEATEDTSVEK (UniProt Q9BSL1) | -0.11 | -0.621
58 | TXNL1_O43396_149_AGCECLNESDEHGFDNCLR (UniProt O43396) | -0.202 | 0.0846
59 | UBE2E1_P51965_122_IYHCNINSQGVICLDILK (UniProt P51965) | -0.44 | 0.542
60 | TXNRD2_Q9NNW7_523_SGLDPTVTGCUG (UniProt Q9NNW7) | -1.15 | -2.15
61 | UBR5_O95071_1382+1386_LDCFTHCLIVK (UniProt O95071) | 0.285 | -0.444
62 | UAP1L1_Q3KQV9_231_VAMAPDGNGGLYCALEDHK (UniProt Q3KQV9) | 0.0541 | 0.22
63 | UBE2S_Q16763_118_CLLIHPNPESALNEEAGR (UniProt Q16763) | 0.161 | 0.197
64 | UBAP2_Q5T6F2_78_NQDECIVALHDCNGDVNK (UniProt Q5T6F2) | -0.0704 | -0.0882
65 | UBAP2_Q5T6F2_104_AINILLEGNSDTTSWETVGCK (UniProt Q5T6F2) | -0.000255 | -0.128
66 | UBN1_Q9NPG3_38_EEAGAGEQHQDCEPAAAAVR (UniProt Q9NPG3) | -0.0725 | 0.125
67 | TXNRD2_Q9NNW7_168_ASFVDEHTVCGVAK (UniProt Q9NNW7) | -0.0313 | 0.118
